The text below walks through data of patent US8546426B2, “N-aminotetrahydroisoquinolines as anti-cancer agents” (Florida A&M University Board of Trustees, priority 2011, dated 2013).

The assay deals with MDA-MB-231 estrogen receptor-negative breast cancer cell line. Description: […]-GLO luminescent cell viability assay, MDA-MB-231. The assay is classed as cell-based. The following applies: Homo sapiens, MDA-MB-231 cells, 5000 cells/well, 72 h at 37° C. The protocol: All the compounds are tested in three cell lines. Different concentration of compounds, ranging from about 0.01 nM to about 100,000 nM were delivered to 5×10^3 cells per well, which were then incubated for three days at 37° C., followed by CTG assay.
In this assay, the number of viable cells in culture is determined based on the quantification of ATP present, which signals the presence of metabolically active cells. Damaged cells are not detected as the ATP leaked from these cells is quickly consumed by ATPases that are also released upon damage). The amount of ATP is determined using a system based on luciferase and D-luciferin resulting in light generation.
The cell lines were plated in 13, 96 well plates at a density of 5000 cells/well in total volumes of 50 μL in phenol-red free medium and incubated for overnight.
25 μL of 40 nM estradiol should be added to all appropriate wells on the plate. […] 25 μL of stocks (containing the compounds to be tested, DMSO and phenol-red free medium) were added to cells and medium already on plate. 50 μL of medium were added to media wells, and 50 μL of mix (contain 32 mL DMSO+768 mL phenol-red free medium) to all vehicle control wells.
Luminescence results were read on TriLux Luminometer. […] Data were expressed as percentage of untreated control (i.e. treatment value-blank/vehicle value blank), mean±SE for three replications.

≈ marks a conversion by molar mass, not a printed value.

Take `CC/C(=C(\c1ccccc1)c1ccc(OCCN(C)C)cc1)c1ccccc1` [Tamoxifen, reference compound]: the IC50 (in general, the concentration that inhibits the measured activity by half) amounted to 5.98 µg/mL (≈ 16.1 µM).
